In paper PMC7819943, “Rice protein-binding microarrays: a tool to detect cis-acting elements near promoter regions in rice”:
Some of the results follow.

These sequences were tested against T1, OsSMF1 (Oryza sativa, UniProt Q6ZLB0 1-436) (assay: protein-binding microarray (RPBM); PBS, 2% BSA, 51.3 ng/ul salmon testes DNA, 50 uM zinc acetate, 200 nM TF, 25 C, 1 h; high values mean tight binding). Conditions: protein: recombinant; tags: N-terminal polyhistidine and DsRed monomer fusion (pET32a); chain copies: 2; label: CyDye5-dUTP incorporated in the synthesized complementary strand; 3' TTTTT single-stranded linker to array surface; dsDNA, one strand shown.
T1 sequence: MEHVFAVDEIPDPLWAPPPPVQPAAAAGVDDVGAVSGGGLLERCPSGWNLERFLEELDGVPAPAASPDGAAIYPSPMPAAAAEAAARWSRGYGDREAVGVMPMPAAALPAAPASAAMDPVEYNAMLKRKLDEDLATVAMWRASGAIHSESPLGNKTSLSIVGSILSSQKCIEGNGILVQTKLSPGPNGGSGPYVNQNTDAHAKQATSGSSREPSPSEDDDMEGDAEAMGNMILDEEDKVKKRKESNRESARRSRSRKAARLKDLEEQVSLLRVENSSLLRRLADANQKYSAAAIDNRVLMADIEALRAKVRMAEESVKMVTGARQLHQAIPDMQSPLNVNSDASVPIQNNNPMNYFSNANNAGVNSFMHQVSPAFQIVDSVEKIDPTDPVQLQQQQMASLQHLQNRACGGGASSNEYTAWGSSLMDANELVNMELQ
Procedure, shortened: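 The binding signal is fluorescence intensity per feature, in arbitrary units, read on an Axon 4000B scanner. Polyhistidine- and DsRed-tagged transcription factors (N-terminal fusions) from E. coli BL21-CodonPlus were purified on Ni–NTA and applied at 200 nM for 1 h at 25 °C to a double-stranded, BSA-blocked custom Agilent array in buffer with 50 µM zinc acetate.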

Compared with “TGAAGATTGATGAGATGGACGGTACCATTGCCGATGCTGTCGGAGTCACCTAGTGCAG”, “TTTTGCAACACCATAATATTCTTCAACTCTCACTCCATCACGGAGTCACCTAGTGCAG” is higher in binding signal: 3160 fluorescence intensity (a.u.) for the first, 3410 fluorescence intensity (a.u.) for the second.

Going from “CATCGTCGACGATGACACCACGCGTGATGCGAGTCCCTCACGGAGTCACCTAGTGCAG” to “CAAAGTTAGCAGGCAACGCGTCACTACCGCGTGATCATTTCGGAGTCACCTAGTGCAG”, the binding signal rises from 3470 fluorescence intensity (a.u.) to 4470 fluorescence intensity (a.u.).

First: AGTCATTGTTTTAGGATGTGTCACATCCACCCAAAATCACCGGAGTCACCTAGTGCAG
Second: CGACGAGGTTAACCTACCCAGCGTGCACACGTGTCACACCCGGAGTCACCTAGTGCAG
The binding signal of the first is lower: 3930 fluorescence intensity (a.u.) for the first, 7880 fluorescence intensity (a.u.) for the second.

Going from “AAGTGGAACCCACGTATCATCCTCCCTCTTCTCTCTTCCTCGGAGTCACCTAGTGCAG” to “AGTTCCACTTGATATCCTAACATCCTTGTTGGCTTGGTGTCGGAGTCACCTAGTGCAG”, the binding signal falls from 4160 fluorescence intensity (a.u.) to 3200 fluorescence intensity (a.u.).

First: GAGGGGAAAGATAGATGATGTGGCATTCTGACATGTGGAGCGGAGTCACCTAGTGCAG
Second: CGGCCAAGTCGTCAAGAAGCTAGCTAGTCATTGCCAGTGGCGGAGTCACCTAGTGCAG
The binding signal of the first is higher: 15300 fluorescence intensity (a.u.) for the first, 3260 fluorescence intensity (a.u.) for the second.

First: GGTCCAGTGGGCCCCACGCGTCAGCCGCACGCGGACCCGCCGGAGTCACCTAGTGCAG
Second: GTTGGCAATGATGTACAGTTGGAGCGGTGATGGTGGCGTGCGGAGTCACCTAGTGCAG
The binding signal of the first is higher: 7570 fluorescence intensity (a.u.) for the first, 4310 fluorescence intensity (a.u.) for the second.

Compared with “CTTGTCTCCCTCCACGTTCGCACGTCGCCGCCTGCCTGCTCGGAGTCACCTAGTGCAG”, “ACTGGAAAATTTGGTCCACCTGTCTCGTCAACAGATTTCACGGAGTCACCTAGTGCAG” is lower in binding signal: 8610 fluorescence intensity (a.u.) for the first, 3380 fluorescence intensity (a.u.) for the second.

First: CACGCATGCTTCGCGTCACTGCACGCATGTGACATTGTCACGGAGTCACCTAGTGCAG
Second: ATCAATCTAATCATGACTTTGAGTCATTTCCGATCTAACTCGGAGTCACCTAGTGCAG
The binding signal of the first is higher: 5760 fluorescence intensity (a.u.) for the first, 4000 fluorescence intensity (a.u.) for the second.

First: CAATCAGAGCCCAAAATAGGAGTCCATGTCACGTACATAACGGAGTCACCTAGTGCAG
Second: CTCAAAACTTCCAGTCTGACTCACACTCACAAACACAAAGCGGAGTCACCTAGTGCAG
The binding signal of the first is higher: 4490 fluorescence intensity (a.u.) for the first, 3760 fluorescence intensity (a.u.) for the second.

First: ATGGACTGTTTTGTCAACTAAGTAATGCATGACACGTGGACGGAGTCACCTAGTGCAG
Second: ACTAAGATCGTAATAAAACATCGTATGTGCAGTATTTTCCCGGAGTCACCTAGTGCAG
The binding signal of the first is higher: 14500 fluorescence intensity (a.u.) for the first, 3530 fluorescence intensity (a.u.) for the second.

Going from “ACCACTTCTCTCTTGGAATTCATGAAACCGACGCCGAAAACGGAGTCACCTAGTGCAG” to “TTTAATGGAGGGAGTACGTGTCATCGAGGGCTCGTTGATGCGGAGTCACCTAGTGCAG”, the binding signal rises from 3200 fluorescence intensity (a.u.) to 8160 fluorescence intensity (a.u.).

First: GCCGCTGCCCGACGCCAAATCTGGTGAGCTCGGTGGATGCCGGAGTCACCTAGTGCAG
Second: CTCGTCGGCCTCAACCACCTTCTTGGGATCTGCGCAACACCGGAGTCACCTAGTGCAG
The binding signal of the first is higher: 3280 fluorescence intensity (a.u.) for the first, 3170 fluorescence intensity (a.u.) for the second.

Compared with “AAACCGAACCAAACGACGGTGACTCACCCATGGTCTCGATCGGAGTCACCTAGTGCAG”, “TAAGCAGATGCTTGAGTGCACTGCTGCGGATTTGGCACTCCGGAGTCACCTAGTGCAG” is lower in binding signal: 14100 fluorescence intensity (a.u.) for the first, 3250 fluorescence intensity (a.u.) for the second.

Compared with “GACTACGGCGCGCGGGCGGGCGGGAGGGCGGACGCGGCGGCGGAGTCACCTAGTGCAG”, “AATTTCTTTGATGGTAAGATGAGTCACAACGAAATAAATGCGGAGTCACCTAGTGCAG” is higher in binding signal: 3700 fluorescence intensity (a.u.) for the first, 5460 fluorescence intensity (a.u.) for the second.

First: GATCAAAATTTAATCTGACGGTGCGTTTGGTTTCCTTGCACGGAGTCACCTAGTGCAG
Second: CGCCGCTCTCGTTCCCACTCCCGCGTGGCCCCACGCCGCGCGGAGTCACCTAGTGCAG
The binding signal of the first is lower: 3950 fluorescence intensity (a.u.) for the first, 4590 fluorescence intensity (a.u.) for the second.

Going from “GGTGATCACATTGGCCCTTTCAACCTGGGAAACCCAGGAGCGGAGTCACCTAGTGCAG” to “GTCCAAGAAGCCTCCATGGCCATGGATCTCACCTCCTCCTCGGAGTCACCTAGTGCAG”, the binding signal falls from 26000 fluorescence intensity (a.u.) to 3170 fluorescence intensity (a.u.).

Compared with “CCAGTCCAATACCTCCAACCCAAGTCTTCTTCCTCGTCTCCGGAGTCACCTAGTGCAG”, “CCCACACCACCTCTCATCGACTCATTTGCTTGCATCTTCCCGGAGTCACCTAGTGCAG” is lower in binding signal: 10700 fluorescence intensity (a.u.) for the first, 3220 fluorescence intensity (a.u.) for the second.

Compared with “AACTCCGAGCGTTGCTATGGGAGTTCCGTAAAATAGTAATCGGAGTCACCTAGTGCAG”, “GGTCTCCACGCCTACGCATCCACGTCTCCAGCCAGGTCCACGGAGTCACCTAGTGCAG” is lower in binding signal: 39300 fluorescence intensity (a.u.) for the first, 3540 fluorescence intensity (a.u.) for the second.

First: GCGGCGGAGGCGTACCTGAAGCAGTGTCAGGTAGCTCGACCGGAGTCACCTAGTGCAG
Second: AACGTCTTGCTGATTGTGATCCTCGTGTCCTAAAAGAACACGGAGTCACCTAGTGCAG
The binding signal of the first is higher: 4470 fluorescence intensity (a.u.) for the first, 3610 fluorescence intensity (a.u.) for the second.

First: CCGCTGCCCAAGGTTGCCGAGTCGGCTACTGCTGTCTGAGCGGAGTCACCTAGTGCAG
Second: GGGCAGCGTGTACAAGCCGGACAACGTGTCGCCGCCGGAGCGGAGTCACCTAGTGCAG
The binding signal of the first is higher: 3730 fluorescence intensity (a.u.) for the first, 3340 fluorescence intensity (a.u.) for the second.

Compared with “TACGGCCACGCATCTGGAGTCAGTGCTGACGAGCACACAACGGAGTCACCTAGTGCAG”, “TCGGTCATGATGTCGCTACCCTTTCTTATTGTCGGCGTTGCGGAGTCACCTAGTGCAG” is lower in binding signal: 3920 fluorescence intensity (a.u.) for the first, 3240 fluorescence intensity (a.u.) for the second.
